Source: the supplement of paper PMC10849652
The list shows a part of the results.

Protein sequences, listed by entry. Tags and fused reporters are not part of them. Lines headed by an entry give the natural chain unless they say otherwise; changes in a name come on top.
UniProt Q6IPR3: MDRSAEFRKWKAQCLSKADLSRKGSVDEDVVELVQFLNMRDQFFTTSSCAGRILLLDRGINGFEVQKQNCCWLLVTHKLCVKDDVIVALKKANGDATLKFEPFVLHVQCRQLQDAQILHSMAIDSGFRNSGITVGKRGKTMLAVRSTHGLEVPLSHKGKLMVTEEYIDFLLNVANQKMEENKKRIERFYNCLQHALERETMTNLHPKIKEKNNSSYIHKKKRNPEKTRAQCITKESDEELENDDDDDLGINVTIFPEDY
UniProt Q96LJ8: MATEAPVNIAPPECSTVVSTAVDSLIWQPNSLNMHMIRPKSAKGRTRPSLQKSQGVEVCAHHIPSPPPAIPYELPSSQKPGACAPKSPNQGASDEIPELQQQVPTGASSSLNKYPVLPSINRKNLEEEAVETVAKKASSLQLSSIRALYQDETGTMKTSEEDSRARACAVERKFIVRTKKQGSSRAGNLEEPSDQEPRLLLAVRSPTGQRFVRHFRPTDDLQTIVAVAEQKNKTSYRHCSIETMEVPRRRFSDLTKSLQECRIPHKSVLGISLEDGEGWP
UniProt P29597: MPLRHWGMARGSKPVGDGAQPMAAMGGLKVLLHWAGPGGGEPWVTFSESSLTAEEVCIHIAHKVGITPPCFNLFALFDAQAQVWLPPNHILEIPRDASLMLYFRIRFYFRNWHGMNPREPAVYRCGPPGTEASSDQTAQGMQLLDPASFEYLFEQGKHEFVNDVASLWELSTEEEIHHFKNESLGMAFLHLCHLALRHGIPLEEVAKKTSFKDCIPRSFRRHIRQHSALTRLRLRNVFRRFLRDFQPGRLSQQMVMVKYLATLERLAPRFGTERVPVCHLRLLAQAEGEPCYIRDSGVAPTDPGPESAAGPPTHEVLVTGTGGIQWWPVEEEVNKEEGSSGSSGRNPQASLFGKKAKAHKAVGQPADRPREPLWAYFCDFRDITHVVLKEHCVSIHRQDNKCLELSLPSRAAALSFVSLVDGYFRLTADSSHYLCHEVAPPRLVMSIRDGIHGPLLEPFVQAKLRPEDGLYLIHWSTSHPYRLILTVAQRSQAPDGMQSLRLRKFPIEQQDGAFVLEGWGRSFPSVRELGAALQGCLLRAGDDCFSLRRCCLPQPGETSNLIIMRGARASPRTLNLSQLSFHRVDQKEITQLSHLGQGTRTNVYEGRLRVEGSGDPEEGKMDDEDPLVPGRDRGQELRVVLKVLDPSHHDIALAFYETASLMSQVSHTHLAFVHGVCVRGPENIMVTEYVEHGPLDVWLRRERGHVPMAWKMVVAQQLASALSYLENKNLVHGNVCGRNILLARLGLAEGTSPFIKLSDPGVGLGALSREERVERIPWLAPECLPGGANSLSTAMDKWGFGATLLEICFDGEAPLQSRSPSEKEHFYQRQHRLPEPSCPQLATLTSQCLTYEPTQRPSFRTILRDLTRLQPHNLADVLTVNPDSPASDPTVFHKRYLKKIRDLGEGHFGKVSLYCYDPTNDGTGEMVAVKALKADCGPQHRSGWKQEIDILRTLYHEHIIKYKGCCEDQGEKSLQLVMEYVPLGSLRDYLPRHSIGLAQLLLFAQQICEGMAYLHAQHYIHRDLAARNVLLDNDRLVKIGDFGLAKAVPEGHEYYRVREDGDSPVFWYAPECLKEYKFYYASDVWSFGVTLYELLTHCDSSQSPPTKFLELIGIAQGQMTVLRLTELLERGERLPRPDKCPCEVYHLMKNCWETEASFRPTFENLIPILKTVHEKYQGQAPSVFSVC
UniProt Q9NPG3, whole entry, looked up: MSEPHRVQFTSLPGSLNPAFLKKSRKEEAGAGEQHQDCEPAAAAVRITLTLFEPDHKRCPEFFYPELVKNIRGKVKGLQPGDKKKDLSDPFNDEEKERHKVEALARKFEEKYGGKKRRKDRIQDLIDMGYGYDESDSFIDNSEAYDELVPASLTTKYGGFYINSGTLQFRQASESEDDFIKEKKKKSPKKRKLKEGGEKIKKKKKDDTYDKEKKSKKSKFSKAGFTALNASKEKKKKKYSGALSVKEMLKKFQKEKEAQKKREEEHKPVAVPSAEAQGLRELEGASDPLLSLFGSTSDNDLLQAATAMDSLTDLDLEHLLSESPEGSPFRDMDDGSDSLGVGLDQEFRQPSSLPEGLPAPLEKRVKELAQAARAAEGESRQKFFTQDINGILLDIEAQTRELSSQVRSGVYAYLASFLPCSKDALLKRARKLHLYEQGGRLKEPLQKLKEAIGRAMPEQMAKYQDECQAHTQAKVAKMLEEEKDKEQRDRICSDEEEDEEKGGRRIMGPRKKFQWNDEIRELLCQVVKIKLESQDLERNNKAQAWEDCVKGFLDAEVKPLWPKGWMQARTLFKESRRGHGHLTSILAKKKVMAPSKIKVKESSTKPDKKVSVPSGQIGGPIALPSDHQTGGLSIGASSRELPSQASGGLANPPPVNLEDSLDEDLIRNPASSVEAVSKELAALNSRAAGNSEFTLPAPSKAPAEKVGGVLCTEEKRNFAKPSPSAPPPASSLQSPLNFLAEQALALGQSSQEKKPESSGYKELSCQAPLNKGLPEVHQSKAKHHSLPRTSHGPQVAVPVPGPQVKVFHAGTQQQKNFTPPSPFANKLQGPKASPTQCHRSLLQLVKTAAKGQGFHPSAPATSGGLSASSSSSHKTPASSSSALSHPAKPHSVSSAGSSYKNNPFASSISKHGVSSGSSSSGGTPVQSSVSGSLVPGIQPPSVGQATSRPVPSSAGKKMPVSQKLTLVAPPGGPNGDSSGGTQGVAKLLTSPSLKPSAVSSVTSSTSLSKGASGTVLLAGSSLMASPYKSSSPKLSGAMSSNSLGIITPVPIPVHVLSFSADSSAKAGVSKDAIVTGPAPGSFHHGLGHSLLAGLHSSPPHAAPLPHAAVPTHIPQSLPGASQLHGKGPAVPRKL
UniProt Q9C0H2: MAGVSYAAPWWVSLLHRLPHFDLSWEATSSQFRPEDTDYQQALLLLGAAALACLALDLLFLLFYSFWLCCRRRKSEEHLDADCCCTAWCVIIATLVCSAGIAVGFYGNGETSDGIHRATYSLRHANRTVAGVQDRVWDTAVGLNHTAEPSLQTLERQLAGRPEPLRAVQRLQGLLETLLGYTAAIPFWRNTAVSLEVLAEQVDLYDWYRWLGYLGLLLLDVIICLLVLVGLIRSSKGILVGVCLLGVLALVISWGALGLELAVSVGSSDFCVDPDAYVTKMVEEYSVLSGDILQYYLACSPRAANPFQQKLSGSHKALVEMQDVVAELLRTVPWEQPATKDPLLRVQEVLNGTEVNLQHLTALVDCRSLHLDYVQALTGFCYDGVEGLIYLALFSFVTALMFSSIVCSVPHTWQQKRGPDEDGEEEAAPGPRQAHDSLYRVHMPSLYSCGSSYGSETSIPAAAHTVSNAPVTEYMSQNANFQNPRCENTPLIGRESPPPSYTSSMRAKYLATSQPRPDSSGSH
UniProt A2RUC4: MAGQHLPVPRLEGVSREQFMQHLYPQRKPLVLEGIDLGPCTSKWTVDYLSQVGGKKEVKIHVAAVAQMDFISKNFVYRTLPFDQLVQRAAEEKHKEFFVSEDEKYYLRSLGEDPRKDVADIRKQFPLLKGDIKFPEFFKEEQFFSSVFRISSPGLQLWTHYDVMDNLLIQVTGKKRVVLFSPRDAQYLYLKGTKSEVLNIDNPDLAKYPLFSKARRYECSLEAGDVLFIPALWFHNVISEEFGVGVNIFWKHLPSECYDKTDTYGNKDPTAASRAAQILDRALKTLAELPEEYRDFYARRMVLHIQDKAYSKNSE
UniProt Q9NY65, whole entry, looked up: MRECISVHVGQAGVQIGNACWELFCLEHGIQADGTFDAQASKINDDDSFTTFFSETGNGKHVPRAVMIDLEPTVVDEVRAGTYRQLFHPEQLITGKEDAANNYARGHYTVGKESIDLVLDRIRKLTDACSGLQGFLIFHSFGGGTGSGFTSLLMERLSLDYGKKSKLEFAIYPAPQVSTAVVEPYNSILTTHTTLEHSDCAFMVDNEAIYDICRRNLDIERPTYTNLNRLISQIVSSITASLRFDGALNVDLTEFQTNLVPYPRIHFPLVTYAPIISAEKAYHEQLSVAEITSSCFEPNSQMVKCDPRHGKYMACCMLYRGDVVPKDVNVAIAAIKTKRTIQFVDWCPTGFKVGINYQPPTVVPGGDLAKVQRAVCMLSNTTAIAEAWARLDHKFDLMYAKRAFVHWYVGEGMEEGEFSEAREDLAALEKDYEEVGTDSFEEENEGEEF
UniProt O14530: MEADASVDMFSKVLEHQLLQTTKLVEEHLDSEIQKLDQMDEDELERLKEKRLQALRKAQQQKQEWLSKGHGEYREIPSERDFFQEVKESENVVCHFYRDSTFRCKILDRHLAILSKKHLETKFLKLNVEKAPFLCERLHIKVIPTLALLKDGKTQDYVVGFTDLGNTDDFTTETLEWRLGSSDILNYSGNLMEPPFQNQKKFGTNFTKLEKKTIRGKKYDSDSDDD
UniProt Q16881, whole entry, looked up: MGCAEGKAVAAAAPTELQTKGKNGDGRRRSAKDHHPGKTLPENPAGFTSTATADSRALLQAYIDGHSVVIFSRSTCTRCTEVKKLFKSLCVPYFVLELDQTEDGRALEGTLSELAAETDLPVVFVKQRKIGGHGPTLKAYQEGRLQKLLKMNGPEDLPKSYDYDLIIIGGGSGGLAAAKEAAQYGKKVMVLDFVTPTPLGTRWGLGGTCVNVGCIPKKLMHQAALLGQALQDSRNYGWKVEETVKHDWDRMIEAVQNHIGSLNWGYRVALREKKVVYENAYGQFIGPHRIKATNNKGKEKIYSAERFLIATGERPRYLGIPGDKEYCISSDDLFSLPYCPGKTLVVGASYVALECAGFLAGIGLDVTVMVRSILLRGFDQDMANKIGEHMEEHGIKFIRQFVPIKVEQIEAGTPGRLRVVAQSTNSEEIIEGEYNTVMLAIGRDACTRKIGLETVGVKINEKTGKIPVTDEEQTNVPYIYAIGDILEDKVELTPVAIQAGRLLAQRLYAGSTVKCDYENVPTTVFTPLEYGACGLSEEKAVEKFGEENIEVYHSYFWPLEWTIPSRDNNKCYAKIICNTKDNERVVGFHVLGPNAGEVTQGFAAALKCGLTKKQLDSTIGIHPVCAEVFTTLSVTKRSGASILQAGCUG
UniProt Q06418: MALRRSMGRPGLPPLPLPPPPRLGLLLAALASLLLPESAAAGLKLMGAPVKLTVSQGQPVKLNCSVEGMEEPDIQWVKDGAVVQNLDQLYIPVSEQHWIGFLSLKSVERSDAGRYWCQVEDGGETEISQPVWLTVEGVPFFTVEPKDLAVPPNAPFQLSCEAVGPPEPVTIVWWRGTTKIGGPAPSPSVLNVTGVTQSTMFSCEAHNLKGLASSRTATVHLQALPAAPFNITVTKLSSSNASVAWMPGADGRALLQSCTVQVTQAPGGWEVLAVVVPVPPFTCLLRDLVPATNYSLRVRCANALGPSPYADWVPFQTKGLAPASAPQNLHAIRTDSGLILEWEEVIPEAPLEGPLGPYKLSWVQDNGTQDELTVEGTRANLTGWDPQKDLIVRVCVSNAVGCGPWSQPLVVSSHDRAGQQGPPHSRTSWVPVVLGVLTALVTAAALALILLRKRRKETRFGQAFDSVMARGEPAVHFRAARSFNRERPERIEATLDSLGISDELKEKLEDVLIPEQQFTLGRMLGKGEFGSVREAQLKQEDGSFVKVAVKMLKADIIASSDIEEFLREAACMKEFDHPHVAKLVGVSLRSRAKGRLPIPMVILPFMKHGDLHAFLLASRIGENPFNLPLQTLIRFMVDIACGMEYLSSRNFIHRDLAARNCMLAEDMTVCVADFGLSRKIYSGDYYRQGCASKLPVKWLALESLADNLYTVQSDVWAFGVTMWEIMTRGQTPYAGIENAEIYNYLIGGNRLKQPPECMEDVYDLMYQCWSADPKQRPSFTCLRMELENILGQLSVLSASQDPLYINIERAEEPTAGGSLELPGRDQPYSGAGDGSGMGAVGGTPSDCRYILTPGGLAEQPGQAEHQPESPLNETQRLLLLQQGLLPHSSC
UniProt Q9BVA1, whole entry, looked up: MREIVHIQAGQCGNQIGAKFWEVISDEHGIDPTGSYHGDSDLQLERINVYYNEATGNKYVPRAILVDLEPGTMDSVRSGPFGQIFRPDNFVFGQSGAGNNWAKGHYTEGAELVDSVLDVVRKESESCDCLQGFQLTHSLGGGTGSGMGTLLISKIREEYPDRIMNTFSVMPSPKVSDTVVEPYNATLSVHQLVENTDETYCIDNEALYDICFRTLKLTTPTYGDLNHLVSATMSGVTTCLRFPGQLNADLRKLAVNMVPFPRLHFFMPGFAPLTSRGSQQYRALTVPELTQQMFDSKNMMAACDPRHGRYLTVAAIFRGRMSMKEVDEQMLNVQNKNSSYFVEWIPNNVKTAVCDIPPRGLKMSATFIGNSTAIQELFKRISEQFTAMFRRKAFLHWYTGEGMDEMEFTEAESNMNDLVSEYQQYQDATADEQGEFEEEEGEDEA
UniProt P09936: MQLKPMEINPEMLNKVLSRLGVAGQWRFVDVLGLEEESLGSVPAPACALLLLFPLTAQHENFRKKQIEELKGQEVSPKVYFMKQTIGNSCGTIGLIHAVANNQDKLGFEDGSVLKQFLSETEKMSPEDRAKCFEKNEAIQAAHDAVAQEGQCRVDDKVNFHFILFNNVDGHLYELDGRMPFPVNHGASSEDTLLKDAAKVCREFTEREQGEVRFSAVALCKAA

Assays:
Assay in all cases: log2 fold change, soluble protein after heating vs DMSO (PISA); higher = thermal stabilisation; K562 lysate, 10 uM; active = over 0.2 and 3.5 SD of the protein, either way, in both replicates (recomputed)
alvocidib = compound: CN1CC[C@H](c2c(O)cc(O)c3c(=O)cc(-c4ccccc4Cl)oc23)[C@H](O)C1 [alvocidib]
Outline: (§1)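 The values are log-two fold changes in thermal stability compared with solvent controls and come from duplicates. They were obtained by TMTpro 16plex LC-MS/MS, with channel sums equalised, on the supernatant after 21,000xg for 90 min. That supernatant came from crude K562 extract at 1 mg/mL protein treated with 10 μM compound for 30 min, heated for 3 min across 48°C-58°C, pooled and brought to 0.5% NP-40 at 4°C.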

Tubastatin A = compound: CN1CCc2c(c3ccccc3n2Cc2ccc(C(=O)NO)cc2)C1 [Tubastatin A]
Outline: as §1

[1] = compound: CNC(=O)C1=CC=CC=C1NC2=NC(=NC=C2Cl)NC3=C(C=C(C=C3)N4CCOCC4)OC
Outline: as §1

defactinib = compound: CNC(=O)c1ccc(Nc2ncc(C(F)(F)F)c(NCc3nccnc3N(C)S(C)(=O)=O)n2)cc1 [defactinib]
Outline: as §1

[2] = compound: CNc1nc(-c2ccc3c(N)n[nH]c3c2)cc(N2C[C@@H](C(=O)NC3CCCCC3)CC[C@H]2C)n1
Outline: as §1

encorafenib = compound: COC(=O)N[C@@H](C)CNc1nccc(-c2cn(C(C)C)nc2-c2cc(Cl)cc(NS(C)(=O)=O)c2F)n1 [encorafenib]
Outline: as §1

[3] = compound: COC(=O)[C@H](CCSC)NC(=O)C1=C(C=C(C=C1)NC[C@H](CS)N)C2=CC=CC=C2
Outline: as §1

alisertib = compound: COc1cc(Nc2ncc3c(n2)-c2ccc(Cl)cc2C(c2c(F)cccc2OC)=NC3)ccc1C(=O)O [alisertib]
Outline: as §1

[4] = compound: COc1cc2nc(-c3cc(F)ccc3O)nc(N[C@@H]3CNC[C@H]3C(C)(C)O)c2cc1OC
Outline: as §1

gefitinib = compound: COc1cc2ncnc(Nc3ccc(F)c(Cl)c3)c2cc1OCCCN1CCOCC1 [gefitinib]
Outline: as §1

lapatinib = compound: CS(=O)(=O)CCNCc1ccc(-c2ccc3ncnc(Nc4ccc(OCc5cccc(F)c5)c(Cl)c4)c3c2)o1 [lapatinib]
Outline: as §1

pictilisib = compound: CS(=O)(=O)N1CCN(Cc2cc3nc(-c4cccc5[nH]ncc45)nc(N4CCOCC4)c3s2)CC1 [pictilisib]
Outline: as §1

crizotinib = compound: C[C@@H](Oc1cc(-c2cnn(C3CCNCC3)c2)cnc1N)c1c(Cl)ccc(F)c1Cl [crizotinib]
Outline: as §1

[5] = compound: C[C@H](C1=CC=C(C=C1)C(=O)NC2=C3C=CNC3=NC=C2)N
Outline: as §1

duvelisib = compound: C[C@H](Nc1ncnc2nc[nH]c12)c1cc2cccc(Cl)c2c(=O)n1-c1ccccc1 [duvelisib]
Outline: as §1

gandotinib = compound: Cc1cc(Nc2cc(CN3CCOCC3)c3nc(C)c(Cc4ccc(Cl)cc4F)n3n2)n[nH]1 [gandotinib]
Outline: as §1

tozasertib = compound: Cc1cc(Nc2cc(N3CCN(C)CC3)nc(Sc3ccc(NC(=O)C4CC4)cc3)n2)n[nH]1 [tozasertib]
Outline: as §1

doramapimod = compound: Cc1ccc(-n2nc(C(C)(C)C)cc2NC(=O)Nc2ccc(OCCN3CCOCC3)c3ccccc23)cc1 [doramapimod]
Outline: as §1

bafetinib = compound: Cc1ccc(NC(=O)c2ccc(CN3CC[C@H](N(C)C)C3)c(C(F)(F)F)c2)cc1Nc1nccc(-c2cncnc2)n1 [bafetinib]
Outline: as §1

[6] = compound: Cc1cccc(CC(=O)N2CCc3c2ccc(-c2cn(C)c4ncnc(N)c24)c3F)n1
Outline: as §1

Measured: log2 fold change

TYW3 (UniProt Q6IPR3)
inactive: alvocidib -0.033 | Tubastatin A 0.014 | [1] -0.007 | defactinib -0.021 | [2] 0.061 | encorafenib 0.027 | [3] -0.064 | alisertib -0.03 | [4] 0.019 | gefitinib 0.01 | lapatinib -0.014 | pictilisib 0.008 | crizotinib -0.022 | [5] -0.144 | duvelisib 0.018 | gandotinib 0.1 | tozasertib 0 | doramapimod 0.054 | bafetinib 0.051 | [6] 0.176

UBXN10 (UniProt Q96LJ8)
inactive: alvocidib -0.036 | Tubastatin A -0.02 | [1] 0.051 | defactinib 0.026 | [2] 0.019 | encorafenib 0.045 | [3] -0.116 | [4] -0.006 | lapatinib -0.041 | pictilisib 0.006 | crizotinib 0.02 | [5] -0.001 | duvelisib 0.035 | gandotinib 0.06 | tozasertib 0.006 | doramapimod -0.003 | bafetinib -0.081 | [6] -0.065

UBQLN1 isoform 2 (UniProt Q9UMX0)
inactive: Tubastatin A 0.101 | [1] 0.028 | defactinib 0.346 | [2] -0.009 | encorafenib 0.223 | [3] 0.008 | [4] -0.051 | lapatinib -0.06 | crizotinib 0.062 | duvelisib 0.001 | tozasertib 0.034 | doramapimod -0.038

UBA2 (UniProt U3KQ93)
inactive: [1] 0.063 | encorafenib -0.094 | [3] -0.02 | crizotinib -0.114 | tozasertib 0.134 | doramapimod 0.014

UBE2W isoform 3 (UniProt Q96B02)
inactive: [1] -0.115 | defactinib -0.01 | pictilisib -0.04 | bafetinib 0.066

UBXN7 (UniProt H7BYF4)
inactive: alisertib -0.044 | [4] 0.062 | gefitinib -0.127 | lapatinib -0.006

UBA7 (UniProt P41226)
inactive: alvocidib -0.018 | [1] 0.018 | crizotinib -0.015 | [5] -0.015 | gandotinib -0.024 | doramapimod -0.021 | [6] 0.01

UBR4 isoform 4 (UniProt Q5T4S7)
inactive: Tubastatin A -0.337 | [1] -0.16 | defactinib -0.032 | [2] 0.144 | encorafenib -0.028 | [3] 0.062 | [4] 0.064 | lapatinib 0.146 | duvelisib -0.143 | tozasertib 0.079

TYK2 (UniProt P29597)
inactive: [1] -0.237 | encorafenib -0.092 | [3] -0.101 | crizotinib 0.082 | tozasertib -0.054 | doramapimod 0.086

UBN2 (UniProt Q6ZU65)
inactive: Tubastatin A -0.112 | [1] -0.004 | defactinib 0.038 | [2] 0.147 | encorafenib 0 | [3] 0.164 | alisertib -0.07 | gefitinib 0.194 | crizotinib 0.035 | duvelisib -0.001 | tozasertib -0.123 | doramapimod 0.269

UBN1 (UniProt Q9NPG3)
inactive: alvocidib -0.176 | defactinib -0.044 | [2] -0.076 | encorafenib 0.059 | [3] 0.088 | [4] 0.09 | lapatinib -0.187 | crizotinib -0.042 | [5] -0.057 | duvelisib -0.092 | gandotinib 0.215 | tozasertib 0.069 | doramapimod -0.256 | [6] 0.308

UBAP2L isoform 1 (UniProt Q14157)
inactive: Tubastatin A -0.006 | alisertib 0.032 | gefitinib -0.088 | pictilisib -0.116 | crizotinib 0.376 | doramapimod -0.26 | bafetinib 0.56

UBE2O (UniProt K7ES11)
inactive: alvocidib 0.367 | [4] -0.006 | lapatinib 0.045 | [5] 0.743 | gandotinib -0.301 | [6] -0.346

TUBA4A (UniProt C9JQ00)
inactive: alvocidib 0.074 | pictilisib -0.2 | [5] -0.094 | gandotinib -0.142 | bafetinib -0.368 | [6] 0.228

UBAP2L (UniProt F8W726)
inactive: defactinib 0.06 | [4] 0.093 | lapatinib -0.15 | crizotinib 0.098 | doramapimod -0.068

TTYH3 isoform 4 (UniProt Q9C0H2)
inactive: [1] 0.012

TVP23C (UniProt Q96ET8)
inactive: alvocidib -0.236 | crizotinib 0.018 | [5] -0.473 | gandotinib 0.144 | doramapimod 0.062 | [6] -0.033

U2SURP isoform 2 (UniProt O15042)
inactive: [1] 0.131 | defactinib -0.034 | [2] 0.047 | encorafenib 0.09 | [3] 0.118 | duvelisib 0.058 | tozasertib -0.333

TXNRD2 isoform 3 (UniProt Q9NNW7)
inactive: Tubastatin A 0.072 | [1] 0.194

TYW5 (UniProt A2RUC4)
inactive: alvocidib -0.034 | [1] 0.125 | encorafenib 0.02 | [3] -0.003 | alisertib 0.051 | [4] -0.211 | gefitinib -0.036 | lapatinib 0.034 | pictilisib -0.059 | crizotinib 0.02 | [5] 0.024 | gandotinib -0.091 | tozasertib -0.005 | doramapimod -0.047 | bafetinib 0.034 | [6] 0.062

UBE2K (UniProt D6RDM7)
inactive: [1] 0.035 | defactinib -0.178 | encorafenib 0.029 | [3] 0.001 | alisertib 0.199 | [4] 0.095 | gefitinib 0.138 | lapatinib -0.229 | tozasertib -0.023

UBAP2 (UniProt Q5JV08)
inactive: alisertib -0.165 | gefitinib -0.139

UBE2I (UniProt H3BQQ9)
inactive: alvocidib 0.331 | Tubastatin A -0.077 | defactinib -0.027 | [2] 0.174 | [4] 0.15 | lapatinib -0.011 | pictilisib 0.012 | crizotinib -0.183 | [5] -0.271 | duvelisib 0.074 | gandotinib 0.127 | doramapimod 0.152 | bafetinib -0.278 | [6] 0.077

TUBA8 (UniProt Q9NY65)
inactive: alvocidib -0.21 | [1] 0.01 | [2] 0.024 | encorafenib 0.029 | [3] 0.016 | alisertib 0.201 | gefitinib 0.207 | pictilisib -0.055 | [5] -0.358 | duvelisib 0.087 | gandotinib 0.138 | tozasertib 0.17 | bafetinib -0.327 | [6] 0.297

UBA2 (UniProt K7ESK7)
inactive: [4] -0.001 | lapatinib -0.099

UBQLN1 (UniProt H0YEZ9)
inactive: [1] 0.078

UBAP2, A0A0D9SFI5
inactive: crizotinib -0.037 | doramapimod -0.056

TXNRD3 (UniProt Q86VQ6)
inactive: alvocidib -0.079 | [1] -0.081 | encorafenib 0.045 | [3] 0.047 | [4] 0.116 | lapatinib 0.196 | pictilisib -0.128 | [5] 0.316 | gandotinib 0.027 | tozasertib -0.108 | bafetinib 0.009 | [6] -0.173

U2AF2 (UniProt K7ELP8)
inactive: alvocidib -0.069 | defactinib 0.029 | encorafenib 0.028 | [3] 0.126 | alisertib 0.046 | [4] 0.058 | gefitinib -0.15 | lapatinib -0.134 | [5] -0.083 | gandotinib -0.072 | tozasertib 0.042 | [6] 0.001

TXNDC9 isoform 2 (UniProt O14530)
inactive: [2] -0.067 | duvelisib -0.089

TULP3 isoform 2 (UniProt O75386)
inactive: Tubastatin A -0.189 | [1] 0.087 | defactinib 0.106 | [2] 0.053 | alisertib -0.036 | gefitinib -0.173 | duvelisib -0.002

TXNRD1 isoform 7 (UniProt Q16881)
inactive: alvocidib -0.158 | Tubastatin A 0.205 | defactinib -0.024 | [2] 0.535 | encorafenib -0.06 | [3] 0.049 | [4] 0.094 | lapatinib -0.177 | pictilisib 0.049 | [5] -0.389 | duvelisib 0.109 | gandotinib 0.613 | tozasertib -0.181 | bafetinib -0.051 | [6] 0.455

TYRO3 (UniProt Q06418)
inactive: alvocidib -0.04 | Tubastatin A -0.139 | defactinib 0.22 | encorafenib -0.142 | [3] -0.08 | pictilisib -0.125 | [5] -0.044 | gandotinib -0.191 | tozasertib 0.146 | doramapimod -0.131 | bafetinib -0.047 | [6] 0.075

UBA52 (UniProt P62987)
inactive: alvocidib -0.057 | [1] 0.147 | encorafenib 0.022 | [3] -0.051 | alisertib 0.023 | [4] -0.014 | gefitinib -0.038 | lapatinib 0.04 | pictilisib 0.048 | crizotinib -0.011 | [5] 0 | gandotinib 0.029 | tozasertib 0.02 | doramapimod 0.023 | bafetinib 0.097 | [6] 0.047

2 entries picked at random from the list so far, as already listed:
TYRO3 (UniProt Q06418)
inactive: alvocidib -0.04 | Tubastatin A -0.139 | defactinib 0.22 | encorafenib -0.142 | [3] -0.08 | pictilisib -0.125 | [5] -0.044 | gandotinib -0.191 | tozasertib 0.146 | doramapimod -0.131 | bafetinib -0.047 | [6] 0.075

TXNRD1 isoform 7 (UniProt Q16881)
inactive: alvocidib -0.158 | Tubastatin A 0.205 | defactinib -0.024 | [2] 0.535 | encorafenib -0.06 | [3] 0.049 | [4] 0.094 | lapatinib -0.177 | pictilisib 0.049 | [5] -0.389 | duvelisib 0.109 | gandotinib 0.613 | tozasertib -0.181 | bafetinib -0.051 | [6] 0.455

Following part

UBE2M (UniProt M0QX69)
inactive: alvocidib -0.103 | [5] -0.139 | gandotinib 0.071 | [6] 0.251

TUBB2B (UniProt Q9BVA1)
inactive: alvocidib 0.006 | [2] -0.184 | encorafenib 0.108 | [3] 0.158 | alisertib -0.045 | [4] -0.023 | gefitinib -0.09 | lapatinib 0.119 | pictilisib -0.002 | [5] -0.013 | duvelisib -0.21 | gandotinib 0.057 | tozasertib 0.063 | bafetinib -0.008 | [6] 0.001

UCHL1 (UniProt P09936)
inactive: encorafenib -0.826 | [3] -0.477 | tozasertib 0.601
